# Measurements reported in paper PMC11139207.
# No signal at the amounts used counts as a negative. Where a protein sequence is shown, tags need not be part of it.
# Target: T1, MSMEG_5860 (Mycobacterium smegmatis MC2 155) (UniProt A0R4J9)
# T1 sequence (looked up): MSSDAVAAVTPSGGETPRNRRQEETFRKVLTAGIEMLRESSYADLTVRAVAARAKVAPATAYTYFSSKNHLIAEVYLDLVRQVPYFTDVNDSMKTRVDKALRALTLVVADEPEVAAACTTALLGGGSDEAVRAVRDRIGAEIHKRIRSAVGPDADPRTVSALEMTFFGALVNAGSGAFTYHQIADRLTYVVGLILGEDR
# Assay: EMSA
# Details: room temperature, 20 min, binding buffer not given (as described previously), protein storage buffer 20 mM Tris-HCl, 100 mM NaCl, 1 mM DTT, 10% glycerol, recombinant protein, residues 1-199, protein details: N-terminal His6 (pET28a), probe letters rebuilt from the primers and the genome
sequence,measurement,value
GGAGGAGAGCCTCCCATAGCTGCTGTGGCGAGTTGATTGCTCCAGGAAGTCTGCAAGCCATTCCGATGATGGCAACAGGAGCAACACAATTTTGAGTCAAAGCTTCCCCTACTAATGACGCGATCGGCGTACTTAGTACCACGGCCCGTATGCCACATGCCATCCGAGAAAAGCCGTGGCGAGGGGGGTTTTATTCGCTTTTCCGTAATCCGCCGCGGATCCAGCAATGCGCCATTGTTTAATGGCCGGACAAGATCAGCAATCGATCTTGATTTACGGTGACGTAAAACGCTAGTAGGGCTATCAAAACCCGGTAACAGTACCTTTTCAAAGTT (double strand) [S1 (MSMEG_4727p)],binding result,no binding
